Experimental findings from the supplement of paper PMC4635364 are described below.

The test system of assay [1] is ReNCell VM. Nature of the assay: neuronal differentiation score (DCX+ cell fraction vs untreated, manual image score) (score (-3 to 3)); higher = more neuronal differentiation. To be noted: 2 uM, 2 weeks.
Assay [2] has as its system ReNCell VM. Nature of the assay: dopaminergic neuron differentiation score (TH+ cell fraction vs untreated, manual image score) (score (0 to 3)); higher = more TH+ dopaminergic neuron differentiation. The conditions noted are these: 2 uM, 4 weeks, BDNF 10 ng/ml + GDNF 10 ng/ml.

Structures can show the parent of a compound that is named as a salt. The list shows a part of the results. This data set is noisy: repeats of one test often differ as much as different tests do.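 Cells: ReNCell VM human fetal ventral-midbrain neural progenitors, differentiated mitogen-free. Blinded raters compared doublecortin-stained (early neurons) or tyrosine hydroxylase-stained (dopaminergic neurons) images with untreated wells, where 0 means no change. After repeats and both raters were averaged, compounds scoring 2 or above became hits for retesting.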

With `COc1ccc2c(c1)[nH]c1c(C)nccc12` [Harmine hydrochloride], the neuronal differentiation score with ReNCell VM [1] (library: Phytochemical) is inactive: -2. The “dopaminergic neuron differentiation score” value with ReNCell VM [2] (library: Phytochemical) is inactive: 0.

Take `C[C@]12CC[C@H]3[C@@H](CC[C@]4(O)C[C@@H](O)CC[C@]34C=O)[C@@]1(O)CC[C@@H]2C1=CC(=O)OC1` [Strophanthidin]: in the assay with ReNCell VM [1] (library: Phytochemical), the neuronal differentiation score was inactive: 0. Besides, in the assay with ReNCell VM [2] (library: Phytochemical), the “dopaminergic neuron differentiation score” value is inactive: 0.

For `O=c1ccc2[nH]cc(C3=CCNCC3)c2[nH]1`, in the assay with ReNCell VM [1] (library: Tocriscreen), the neuronal differentiation score was inactive: 0. Moreover, the “dopaminergic neuron differentiation score” value with ReNCell VM [2] (library: Tocriscreen) was inactive: 0.

Turning to `O=C[C@H](Cl)[C@@H](O)[C@H](O)[C@H](O)CO` [2-Chloro-2-deoxy-D-glucose], the neuronal differentiation score in the assay on ReNCell VM [1] (library: LOPAC) is inactive: 0. In the assay with ReNCell VM [2] (library: LOPAC), the “dopaminergic neuron differentiation score” value is inactive: 0.

`O=C1CCO1`: the neuronal differentiation score in the assay on ReNCell VM [1] (library: Spectrum) is inactive: 0. For the same compound, the “dopaminergic neuron differentiation score” value in the assay on ReNCell VM [2] (library: Spectrum) was inactive: 0.

On to `COc1cc2c(cc1OC)C1CC(=O)C(CC(C)C)CN1CC2` (configuration not stated) [Tetrabenazine], for which the neuronal differentiation score in the assay with ReNCell VM [1] (library: Tocriscreen) is inactive: 0. The “dopaminergic neuron differentiation score” value in the assay on ReNCell VM [2] (library: Tocriscreen) is inactive: 0.

`CC[C@H]1[C@@H]2C[C@H]3[C@@H]4N(C)c5ccccc5[C@]45C[C@@H]([C@@H]2[C@H]5O)N3[C@@H]1O`: the neuronal differentiation score in the assay with ReNCell VM [1] (library: Spectrum) is inactive: 0. In addition, the “dopaminergic neuron differentiation score” value with ReNCell VM [2] (library: Spectrum) was inactive: 0.

Consider `CN1CCc2cc3c(c4c2C1Cc1ccccc1-4)OCO3` (configuration not stated) [Remerine HCl], for which the neuronal differentiation score in the assay with ReNCell VM [1] (library: Phytochemical) is inactive: 0. Moreover, in the assay on ReNCell VM [2] (library: Phytochemical), the “dopaminergic neuron differentiation score” value is inactive: 0.

For `C[C@]12COC(=O)C[C@@H]1CC[C@@H]1[C@@H]2CC[C@@]2(C)[C@H]1CC[C@]2(C)O` [Oxandrolone], the neuronal differentiation score in the assay with ReNCell VM [1] (library: Prestwick) was inactive: 0. Also, in the assay with ReNCell VM [2] (library: Prestwick), the “dopaminergic neuron differentiation score” value is inactive: 0.

`c1ccc2sc(C3(N4CCCCC4)CCCCC3)cc2c1` [BTCP maleate]: the neuronal differentiation score in the assay on ReNCell VM [1] (library: Tocriscreen) was inactive: 0. Also, in the assay on ReNCell VM [2] (library: Tocriscreen), the “dopaminergic neuron differentiation score” value is inactive: 0.

`CN1C2CCC1CC(O)C2` (configuration not stated) [Tropine]: the neuronal differentiation score in the assay with ReNCell VM [1] (library: Phytochemical) was inactive: 0. For the same compound, the “dopaminergic neuron differentiation score” value in the assay on ReNCell VM [2] (library: Phytochemical) was inactive: 0.

Turning to `C=C1CC[C@@]2(O)[C@H]3Cc4ccc(O)c5c4[C@@]2(CCN3CC2CC2)[C@H]1O5` [Nalmefene hydrochloride], in the assay on ReNCell VM [1] (library: Prestwick), the neuronal differentiation score was inactive: 0. The “dopaminergic neuron differentiation score” value with ReNCell VM [2] (library: Prestwick) is inactive: 0.

Take `N[C@@H](Cn1oc(=O)[nH]c1=O)C(=O)O` [L-Quisqualic acid]: the neuronal differentiation score in the assay on ReNCell VM [1] (library: Tocriscreen) was inactive: 0. Besides, the “dopaminergic neuron differentiation score” value in the assay on ReNCell VM [2] (library: Tocriscreen) was inactive: 0.

As for `C[C@]12CCC(=O)C(O)=C1CC[C@@H]1[C@@H]2CC[C@]2(C)C(=O)CC[C@@H]12` [Formestane], the neuronal differentiation score in the assay with ReNCell VM [1] (library: Prestwick) is inactive: 0. Besides, the “dopaminergic neuron differentiation score” value in the assay on ReNCell VM [2] (library: Prestwick) was inactive: 0.

With `C[N+]1(C)CCOC(O)(c2ccc(-c3ccc(C4(O)C[N+](C)(C)CCO4)cc3)cc2)C1` (configuration not stated) [Hemicholinium-3], the neuronal differentiation score in the assay with ReNCell VM [1] (library: LOPAC) was inactive: 0. The “dopaminergic neuron differentiation score” value with ReNCell VM [2] (library: LOPAC) was inactive: 0.

As for `CCCOc1ccc2[nH]cc(C3=CCNCC3)c2n1`, the neuronal differentiation score in the assay with ReNCell VM [1] (library: Tocriscreen) is inactive: 0. Moreover, the “dopaminergic neuron differentiation score” value in the assay with ReNCell VM [2] (library: Tocriscreen) is inactive: 0.

Turning to `CCC1(CC)C(=O)C=CNC1=O` [Pyrithyldione], the neuronal differentiation score in the assay on ReNCell VM [1] (library: Prestwick) is inactive: 0. In addition, the “dopaminergic neuron differentiation score” value in the assay on ReNCell VM [2] (library: Prestwick) is inactive: 0.

For `O=c1[nH]c2ccccc2n1C1CCN(CCCC(c2ccc(F)cc2)c2ccc(F)cc2)CC1`, the neuronal differentiation score in the assay on ReNCell VM [1] (library: Spectrum) is inactive: 0. Also, in the assay on ReNCell VM [2] (library: Spectrum), the “dopaminergic neuron differentiation score” value was inactive: 0.

In the case of `C=C[C@H]1CN2CC[C@H]1C[C@H]2[C@H](OC(=O)OCC)c1ccnc2ccc(OC)cc12`, the neuronal differentiation score in the assay on ReNCell VM [1] (library: Spectrum) was inactive: 0. In addition, the “dopaminergic neuron differentiation score” value in the assay with ReNCell VM [2] (library: Spectrum) was inactive: 0.

With `CN[C@@H]1[C@@H](O)[C@@H](O[C@@H]2[C@@H](O)[C@H](O[C@H]3O[C@H]([C@@H](C)O)[C@@H](O)[C@H](O)[C@H]3N)[C@@H](N)C[C@H]2N)OC[C@]1(C)O`, the neuronal differentiation score in the assay with ReNCell VM [1] (library: Spectrum) is inactive: 0. For the same compound, the “dopaminergic neuron differentiation score” value in the assay with ReNCell VM [2] (library: Spectrum) is inactive: 0.

Consider `C[C@@H]1O[C@@H](O[C@@H]2C=C3CC[C@@H]4[C@H](CC[C@]5(C)[C@@H](c6ccc(=O)oc6)CC[C@]45O)[C@@]3(C)CC2)[C@H](O)[C@H](O)[C@H]1O` [Proscillaridin A], for which the neuronal differentiation score with ReNCell VM [1] (library: Prestwick) was inactive: 0. For the same compound, the “dopaminergic neuron differentiation score” value with ReNCell VM [2] (library: Prestwick) was inactive: 0.

Turning to `C[C@@H]1NCCc2cc(O)c(O)cc21` [Salsolinol hydrobromide], the neuronal differentiation score with ReNCell VM [1] (library: Phytochemical) was inactive: 0. For the same compound, the “dopaminergic neuron differentiation score” value in the assay with ReNCell VM [2] (library: Phytochemical) was inactive: 0.

Take `CC(O)(CS(=O)(=O)c1ccc(F)cc1)C(=O)Nc1ccc(C#N)c(C(F)(F)F)c1` (configuration not stated) [Bicalutamide]: in the assay with ReNCell VM [1] (library: Prestwick), the neuronal differentiation score was inactive: 0. For the same compound, in the assay with ReNCell VM [2] (library: Prestwick), the “dopaminergic neuron differentiation score” value is inactive: 0.

As for `Cn1c2c(c3ccccc31)CCNCC2`, the neuronal differentiation score with ReNCell VM [1] (library: Tocriscreen) was inactive: 0. Besides, the “dopaminergic neuron differentiation score” value in the assay on ReNCell VM [2] (library: Tocriscreen) is inactive: 0.

Regarding `O=c1ccc2cc(O[C@@H]3O[C@H](CO)[C@@H](O)[C@H](O)[C@H]3O)c(O)cc2o1`, the neuronal differentiation score with ReNCell VM [1] (library: Spectrum) is inactive: 0. Also, in the assay on ReNCell VM [2] (library: Spectrum), the “dopaminergic neuron differentiation score” value is inactive: 0.

Consider `C[C@@H]1CC[C@H]2[C@@H](C)C(=O)O[C@@H]3O[C@@]4(C)CC[C@@H]1[C@]32OO4`, for which the neuronal differentiation score in the assay on ReNCell VM [1] (library: Spectrum) was inactive: 0. Further, the “dopaminergic neuron differentiation score” value with ReNCell VM [2] (library: Spectrum) is inactive: 1.

Take `O=C(CCCN1CCC2(CC1)C(=O)NCN2c1ccccc1)c1ccc(F)cc1`: the neuronal differentiation score in the assay with ReNCell VM [1] (library: Spectrum) was inactive: 0. For the same compound, the “dopaminergic neuron differentiation score” value in the assay on ReNCell VM [2] (library: Spectrum) is inactive: 0.

For the compound `CCCN1CC[C@@H]2c3cc(O)ccc3CC[C@@H]21` (racemic) [cis(+/-)-8-OH-PBZI hydrobromide], the neuronal differentiation score with ReNCell VM [1] (library: LOPAC) was inactive: 0. The “dopaminergic neuron differentiation score” value with ReNCell VM [2] (library: LOPAC) is inactive: 0.

As for `COc1ccc2c(c1OC)C(=O)OC2C1c2cc3c(cc2CCN1C)OCO3` (single isomer, unassigned; (+)) [(+)-Hydrastine], the neuronal differentiation score in the assay on ReNCell VM [1] (library: LOPAC) is inactive: 0. The “dopaminergic neuron differentiation score” value in the assay on ReNCell VM [2] (library: LOPAC) was inactive: 0.

With `O=C(CCCN1CCC2(CC1)C(=O)NCN2c1ccccc1)c1ccc(F)cc1` [Spiperone], the neuronal differentiation score in the assay with ReNCell VM [1] (library: Prestwick) was inactive: 0. Moreover, the “dopaminergic neuron differentiation score” value in the assay with ReNCell VM [2] (library: Prestwick) was inactive: 0.

As to `O=C(O)[C@@H]1CCN1` [L-azetidine-2-carboxylic acid], the neuronal differentiation score with ReNCell VM [1] (library: LOPAC) is inactive: 0. The “dopaminergic neuron differentiation score” value in the assay with ReNCell VM [2] (library: LOPAC) is inactive: 0.
